Test results: the supplement of paper PMC8256030
Values joined by “and” are separate entries in the source; they are usually repeats but may differ in a detail not shown here. Equal entries are not always repeated. Some of the results follow. Single values are uncertain here, since repeats match poorly.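 HEK293T cells were given each compound shortly before transfection with a reporter in which red mCherry is followed by the SARS-CoV-2 frameshift element and then GFP in the −1 frame, so GFP appears only after frameshifting.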

test system: HEK293T; test: percent viability (nuclei count) relative to control; higher = more viable cells; conditions: 10 µM; 24 h

Row | Structure (SMILES) | percent viability
1 | c1ccc2oc(-c3ccncc3)cc2c1 [pyridarone] | 203%
2 | C[C@@H]1C[C@H]2[C@@H]3C[C@H](F)C4=CC(=O)C=C[C@]4(C)[C@@]3(F)[C@@H](O)C[C@]2(C)[C@@]1(O)C(=O)COC(=O)C(C)(C)C [Locorten] | 216%
3 | CC(=O)OCC1=C(C(=O)O)N2C(=O)[C@@H](NC(=O)CSc3ccncc3)[C@H]2SC1 [cefapirin] | 333%
4 | CN(C)CCC=C1c2ccccc2C=Cc2ccccc21 | 416%
5 | CN1CCCN=C1COC(=O)C(O)(c1ccccc1)C1CCCCC1 (stereo not given) | 347%
6 | CCCN(CC)C(CC)C(=O)Nc1c(C)cccc1C (stereo not given) [Etidocaine] | 237%
7 | O=c1[nH]cnc2c1ncn2[C@@H]1O[C@H](CO)[C@@H](O)[C@H]1O [inosine] | 115%
8 | OCCc1ccccc1 | 167%
9 | Clc1ccc2nsnc2c1NC1=NCCN1 [tizanidine] | 16.1%
10 | C/C(=C(/CCOC(=O)c1ccccc1)SC(=O)c1ccccc1)N(C=O)Cc1cnc(C)nc1N [bentiamine] | 104%
11 | CCCCS(=O)(=O)N[C@@H](Cc1ccc(OCCCCC2CCNCC2)cc1)C(=O)O [tirofiban] | 273%
12 | Oc1ccc(Cl)c2c1CCC2 [clorindanol] | 192%
13 | COC(=O)[C@H]1[C@H]2C[C@@H]3c4[nH]c5cc(OC)ccc5c4CCN3C[C@H]2C[C@@H](OC(=O)c2cc(OC)c(OC)c(OC)c2)[C@@H]1OC [reserpine] | 154%
14 | CC(C)n1c(/C=C/[C@@H](O)C[C@@H](O)CC(=O)O)c(-c2ccc(F)cc2)c2ccccc21 | 61.2%
15 | CCOC(=O)OC(C)OC1=C(C(=O)Nc2ccccn2)N(C)S(=O)(=O)c2ccccc21 (stereo not given) [ampiroxicam] | 268%
16 | CCCC(=O)OCOC(=O)C1=C(C)NC(C)=C(C(=O)OC)C1c1cccc(Cl)c1Cl (stereo not given) [Clevidipine] | 346%
17 | Cc1nnc(NS(=O)(=O)c2ccc(N)cc2)s1 [sulfamethizole] | 140%
18 | CC1COc2c(N3CCN(C)CC3)c(F)cc3c(=O)c(C(=O)O)cn1c23 (stereo not given) [ofloxacin] | 373% and 186%

7 compounds already listed, ordered by molecular weight, largest number first:
Row | Structure (SMILES) | percent viability
13 | COC(=O)[C@H]1[C@H]2C[C@@H]3c4[nH]c5cc(OC)ccc5c4CCN3C[C@H]2C[C@@H](OC(=O)c2cc(OC)c(OC)c(OC)c2)[C@@H]1OC [reserpine] | 154%
10 | C/C(=C(/CCOC(=O)c1ccccc1)SC(=O)c1ccccc1)N(C=O)Cc1cnc(C)nc1N [bentiamine] | 104%
11 | CCCCS(=O)(=O)N[C@@H](Cc1ccc(OCCCCC2CCNCC2)cc1)C(=O)O [tirofiban] | 273%
6 | CCCN(CC)C(CC)C(=O)Nc1c(C)cccc1C (stereo not given) [Etidocaine] | 237%
4 | CN(C)CCC=C1c2ccccc2C=Cc2ccccc21 | 416%
17 | Cc1nnc(NS(=O)(=O)c2ccc(N)cc2)s1 [sulfamethizole] | 140%
1 | c1ccc2oc(-c3ccncc3)cc2c1 [pyridarone] | 203%

Following part

Row | Structure (SMILES) | percent viability
19 | CCCN(CCC)CCc1cccc2c1CC(=O)N2 | 316%
20 | CC(=O)N(CC(O)CO)c1c(I)c(C(=O)NCCO)c(I)c(C(=O)NCC(O)CO)c1I (stereo not given) [ioxilan] | 212%
21 | CC(C)NC[C@@H](O)COc1cccc2ccccc12 | 183%
22 | C[C@]12CC[C@@H]3c4ccc(O)cc4CC[C@H]3[C@@H]1C[C@@H](O)[C@@H]2O | 123%
23 | CC(C)(C)C(=O)OCOC(=O)[C@@H]1N2C(=O)[C@@H](/N=C/N3CCCCCC3)[C@H]2SC1(C)C [pivmecillinam] | 129%
24 | C[C@H]1O[C@H](O[C@H]2[C@H](O)[C@@H](O)[C@@H](O[C@@H]([C@H](O)[C@@H](O)C=O)[C@H](O)CO)O[C@@H]2CO)[C@H](O)[C@@H](O)[C@@H]1N[C@H]1C=C(CO)[C@@H](O)[C@H](O)[C@H]1O [acarbose] | 348% and 203%
25 | C[C@@H](c1nc(-c2ccc(C#N)cc2)cs1)[C@](O)(Cn1cncn1)c1ccc(F)cc1F [ravuconazole] | 92.9%
26 | COc1cc([C@@H]2c3cc4c(cc3[C@@H](O[C@@H]3O[C@@H]5CO[C@@H](c6cccs6)O[C@H]5[C@H](O)[C@H]3O)[C@H]3COC(=O)[C@H]23)OCO4)cc(OC)c1O [Vumon] | 75.1%
27 | Nc1ccc(S(=O)(=O)Nc2ccccn2)cc1 [sulfapyridine] | 169%
28 | CC(C)(CO)C(O)C(=O)NCCC(=O)O (stereo not given) | 340%
29 | CO[C@H]1/C=C/O[C@@]2(C)Oc3c(C)c(O)c4c(O)c(c5c(nc6cc(C)ccn65)c4c3C2=O)NC(=O)/C(C)=C\C=C\[C@H](C)[C@H](O)[C@@H](C)[C@@H](O)[C@@H](C)[C@H](OC(C)=O)[C@@H]1C [Xifaxan] | 246%
30 | CC(C)(CO)[C@@H](O)C(=O)NCCC(=O)NCCSSCCNC(=O)CCNC(=O)[C@H](O)C(C)(C)CO | 236%
31 | CCOC(=O)CN1CCN(C(=O)/C=C/c2cc(OC)c(OC)c(OC)c2)CC1 [cinepazet] | 107%
32 | CC(N)CCCC(C)(C)O (stereo not given) | 396%
33 | CCOC(=O)c1ccc(OCCC2CCN(c3ccc(C)nn3)CC2)cc1 [pirodavir] | 130%
34 | CNC(=O)COc1cc2cc(Nc3nc(N4CCC(C(=O)N(C)C)CC4)ncc3Cl)cc(OC)c2n(C)c1=O | 62.3%
35 | Cc1c(Cl)cc(C(C)C)c(O)c1Cc1c(C)c(Cl)cc(C(C)C)c1O [biclotymol] | 46.5%
